Data taken from PubChem BioAssay AID1159506, deposited by NCATS (2015).

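Genome-wide siRNA knockdown in TC32 Ewing sarcoma cells, comparing luciferase light from an NR0B1-promoter reporter with a CMV-promoter reporter 48 hours after transfection.
Each siRNA was applied at 20 nM.
A z-score of the log NR0B1-over-CMV signal, less the median of siRNAs with the same seed; more negative means a stronger specific loss of the NR0B1 reporter.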

The strongest results of the screen are mostly left out here.
Sequences are the guide (antisense) strand, without overhang.

strand	gene	seed-corrected z-score
UUCUUCACCUGAGCCGCUG	ACADS	0.2985
UUGGUUAGGAUCUCGUUUG	MAP3K9	-1.068
UGUCCGUGAACUCUGAGGC	ROBO4	0.2954
UAGCGAACCCAGAUGAAAC	SF3B3	-0.5701
AACUGUUUCAAGUCUGCAG	GNG5	0.04548
AAACAGAUAUGAUAGGUUG	SLC22A16	-0.6988
UAGGGUUCAACGCAGGAGG	OR56A1	-0.5488
UGCACUUUGAUGAAACCCG	RASSF5	0.09156
AAAGGUAAGUUGUGCAGAG	NPIPA1	-0.08735
AAUGAUACGAUCGAGUUCC	AR	-0.3472
UCUUGUAGAAGGUCACAUC	C10orf54	1.872
UCAGGGUUAGUGGAAAGGC	LAMP5	0.5914
UUUAGGUCCAGCAAGCCUC	PLA2G5	-0.8559
UCGUUGACAAGGGCUGUUG	KLHL32	0.6238
UGCACUAACAUCUUCGUCU	MAGEB4	0.5215
UGUAAAGCUGAAAACGUGG	LOC644727	0.6248
UCACUUUACAGCAUCCAAG	MMADHC	-0.4865
UAACUUCACAUCUGGAAUC	KDM8	-0.629
UGUUACAACAGAACAGAGC	SLC35F4	0.3892
UAAUCGGAACCCUUCAUCG	CR1	0.06519
UCUCUUUCAAAUUGUAGCU	RNF144A	1.663
UUCCGUGAGAUUCAGCAGG	HOXD3	-0.9733
UGUGGUUUGAGCAUUGAUU	CRADD	-0.7162
UAGUCUACCACUCAACUGC	CNTRL	-0.4967
UAUAACUUUUGCCCAGUCC	LURAP1	-0.04689
UUUGAUAGAGUUCUAGGCC	USP28	-1.068
UCGAGUGCUAUCAAAUUCC	DNAJA2	0.02723
UUCUUAGCAAUUCGAAACC	GPATCH1	1.326
AGAGAAGUCAGACGUGUUG	ZFPL1	0.3205
UUAGAAGUUCCUGUAUUCC	UBE2I	-1.236
AAUGAGAAUACACGAGUCC	HTN3	-1.485
AUAAUUAGGAGAGGAGUGA	EFNB3	-0.1287
UUGGGUUAUAGGUCCGGUG	ZSWIM1	-0.2251
UUCCAAACGCUUCCACUCC	ZNF3	0.01679
UUUUGCGGAAGAGUCCUGG	INTS7	0.484
UAAAAACUACCAUAACUGC	BTC	0.9482
UUUGCUACAUUGGUGCCGC	APOL2	0.00986
UCUUUGGGCAGCAUCAUAG	SAA4	0.07978
UAAGUGAUCUCUGACAAAG	PIPOX	0.2496
UCUGGUAGUAAGGUGUCGG	DNAJC16	-0.707
UUGUCCUCAGGUGUAGAUG	SCGB3A1	-0.3499
UCUGGGCUCACAGAUAUCC	LOC729461	-1.591
AAUGAGGUGGGUCAAAUCC	NGDN	-0.3759
AAAGGGAUUCUUAAUCUAG	LOC730183	-1.34
AAGGCUCAUAGACACUUGC	C2orf57	0.2001
UUUCACACCAUUGUGCAGC	MED16	1.38
AUGUGAAUGGACAAUAAGC	NAT8	-0.4046
UCAUAUACAGCAGAAUCCC	GRID1	-1.378

The first 4 entries again:

| strand | gene | seed-corrected z-score |
|---|---|---|
| `UUCUUCACCUGAGCCGCUG` | ACADS | 0.2985 |
| `UUGGUUAGGAUCUCGUUUG` | MAP3K9 | -1.068 |
| `UGUCCGUGAACUCUGAGGC` | ROBO4 | 0.2954 |
| `UAGCGAACCCAGAUGAAAC` | SF3B3 | -0.5701 |